From article PMC6997380
These are yes or no findings as the source states them, for the method shown. For some assays here: Binding seen in cells or lysates may run through a third protein. Some entries that bind do so weakly or less than the wild type. For some assays here: Where a sequence is shown, tags or fusion partners need not be part of it.

Chains of the proteins cited; added tags and fusions are not shown.
UniProt P98170: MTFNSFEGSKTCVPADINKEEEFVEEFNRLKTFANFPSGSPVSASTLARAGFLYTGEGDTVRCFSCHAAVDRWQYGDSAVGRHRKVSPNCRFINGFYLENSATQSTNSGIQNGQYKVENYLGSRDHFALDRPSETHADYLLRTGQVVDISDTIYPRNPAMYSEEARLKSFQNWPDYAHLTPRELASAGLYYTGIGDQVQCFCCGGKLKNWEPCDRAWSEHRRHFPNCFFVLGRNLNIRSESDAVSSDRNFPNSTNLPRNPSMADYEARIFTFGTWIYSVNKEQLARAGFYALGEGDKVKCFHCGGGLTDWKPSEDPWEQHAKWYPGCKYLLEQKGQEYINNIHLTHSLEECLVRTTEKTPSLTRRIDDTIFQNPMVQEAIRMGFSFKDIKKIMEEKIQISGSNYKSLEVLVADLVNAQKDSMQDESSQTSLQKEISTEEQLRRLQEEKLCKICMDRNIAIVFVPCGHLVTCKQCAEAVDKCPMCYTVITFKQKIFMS

T1: 3xFLAG-FAIM-L (UniProt Q9NVQ4)
T1 sequence: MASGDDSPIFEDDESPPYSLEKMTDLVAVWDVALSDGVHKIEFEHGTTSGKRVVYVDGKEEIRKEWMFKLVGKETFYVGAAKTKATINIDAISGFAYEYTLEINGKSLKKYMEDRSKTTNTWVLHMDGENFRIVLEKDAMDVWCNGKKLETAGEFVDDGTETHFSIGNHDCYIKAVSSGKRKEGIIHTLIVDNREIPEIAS

T2: pGBKT7-full length FAIM-L (long isoform of Fas apoptosis inhibitory molecule) (UniProt Q9NVQ4)
T2 sequence: T1 sequence

T3: pGBKT7-N-term FAIM-L (22 N-terminal-specific amino acids of FAIM-L)
T3 sequence: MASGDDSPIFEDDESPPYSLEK

B1: 3xFLAG-SIVA-1 (protein, UniProt O15304 1-175)
chain: MPKRSCPFADVAPLQLKVRVSQRELSRGVCAERYSQEVFEKTKRLLFLGAQAYLDHVWDEGCAVVHLPESPKPGPTGAPRAARGQMLIGPDGRLIRSLGQASEADPSGVASIACSSCVRAVDGKAVCGQCERALCGQCVRTCWGCGSVACTLCGLVDCSDMYEKVLCTSCAMFET
B2: 3xFLAG-FAIM-L (protein, UniProt Q9NVQ4-3 1-201)
chain: T1 sequence
B3: 3xHA-SIVA-1 (protein, UniProt O54926 1-175)
chain: MPKRSCPFADAAPLQLKVHVGLKELSHGVFAERYSREVFERTKQLLFQGARAYRDHISSEDCSVNHLQESLKSGVVGAPQPARGQMLIGPDGRLTRCQAQASEGGLPRTAPIACSSCMRSVDGKAVCSQCERALCGQCVYTCWGCGALACVLCGLADYADDGEKTLCTSCAMFEA
B4: FERM RhoGEF, two-hybrid prey (domain or fragment)
chain: HELKKDLIGIDNLVTPGREFIRLGSLSKLSGKGLQQRMFFLFNDVLLYTSRGLTASNQFKVHGQLPLYGMTIEESEEEWGVPHCLTLRGQRQSIIVAASSRSEMEKWMEDIQMAIDLAEKSNGPTPELLASSPPDNKSPDEA
B5: COMMD1, two-hybrid prey (domain or fragment)
chain: EGGKSLSGLLSGLAQNAFHGHSGVTEELLHSQLYPEVPPEEFRPFLAKMRGLLKSIASADMDFNQLEAFLTAQTKKQGGITSEQAAVISKFWKSHKIKIRESLMKQSRWDNGLRGLSWRVDGKSQSRHSTQIHSPVAIIELEFGKNGQESEFLCLEFDEVKVKQILKKLSEVEESINRLMQAA
B6: Calcyclin, two-hybrid prey (domain or fragment)
chain: DKFVKIYITLTGVHQVPTENVQVHFTERSFDLLVKNLNGKNYSMIVNNLLKPISVESSSKKVKTDTVIILCRKKAENTRWDYLTQVEKECKEKE
B7: AP2m1, two-hybrid prey (domain or fragment)
chain: PKRACQFNRTQLGDCSGIGDPTHYGYSTGQPCVFIKMNRVINFYAGANQSMNVTCVGKRDEDAENLGHFVMFPANGSIDLMYFPYYGKKFHVNYTQPLVAVKFLNVTPNVEVNVECRINAANIATDDERDKFAGRVAFKLRINKT

Target: 6xMyc-XIAP (X-linked inhibitor of apoptosis protein) (UniProt P98170)
Assay: co-IP; cells transiently transfected with Myc-XIAP, FLAG-FAIM-L and FLAG-SIVA-1 (cell line not given); Myc-XIAP immunoprecipitated with anti-Myc antibody and protein G, blot anti-FLAG

binding, binds:
B1
B2

Target: 6xMyc-XIAP (X-linked inhibitor of apoptosis protein) (UniProt P98170)
Assay: co-IP; PC12 cells transiently transfected with Myc-XIAP, FLAG-FAIM-L and two concentrations of HA-SIVA-1; Myc-XIAP immunoprecipitated with anti-Myc antibody, blot anti-FLAG and anti-HA

binding, binds:
B2

Target: T1, 3xFLAG-FAIM-L
Assay: co-IP; HEK293T cells transfected; FLAG-FAIM-L immunoprecipitated with FLAG M2 Affinity agarose beads, blot anti-HA; 10 µM MG132 used to impair the degradation of ΔSIVA-1; IP lysis buffer 20 mM Tris/HCl pH 7.4, 150 mM NaCl, 2 mM EDTA, 10% glycerol, 1% Triton X-100, overnight at 4 °C

binding, binds:
MPKRSCPFADAAPLQLKVHVGLKELSHGVFAERYSREV (domain or fragment) [3xHA-ΔSIVA-1]
B3

Target: T2, pGBKT7-full length FAIM-L (long isoform of Fas apoptosis inhibitory molecule)
Assay: two-hybrid; Matchmaker two-hybrid system 3, by mating; baits in pGBKT7 (Y187), pACT2-mouse cDNA library preys (AH109); selection without leucine, tryptophan and histidine, with 20 mM aminotriazole; confirmed by back transformation in yeast

binding, binds:
B4
YSNRMVDLMAYMASKE (domain or fragment) [GAPDH, two-hybrid prey]
B5
MPKRSCPFADAAPLQLKVHVGLKELSHGVFAERYSREV (domain or fragment) [SIVA-1 (ΔSIVA-1), N-terminal fragment of SIVA-1, two-hybrid prey]
B6
B7

Target: T3, pGBKT7-N-term FAIM-L (22 N-terminal-specific amino acids of FAIM-L)
Assay: as above

binding, binds:
B4
YSNRMVDLMAYMASKE (domain or fragment) [GAPDH, two-hybrid prey]
B5
MPKRSCPFADAAPLQLKVHVGLKELSHGVFAERYSREV (domain or fragment) [SIVA-1 (ΔSIVA-1), N-terminal fragment of SIVA-1, two-hybrid prey]
B6
B7
